In publication PMC6003631:
No constants are given. Whether binding was seen depends on the method and setting. In cells and extracts the contact can be indirect. Some entries that bind do so weakly or less than the wild type.

Protein sequences, listed by entry. Tags and fused reporters are not part of them.
UniProt P35372: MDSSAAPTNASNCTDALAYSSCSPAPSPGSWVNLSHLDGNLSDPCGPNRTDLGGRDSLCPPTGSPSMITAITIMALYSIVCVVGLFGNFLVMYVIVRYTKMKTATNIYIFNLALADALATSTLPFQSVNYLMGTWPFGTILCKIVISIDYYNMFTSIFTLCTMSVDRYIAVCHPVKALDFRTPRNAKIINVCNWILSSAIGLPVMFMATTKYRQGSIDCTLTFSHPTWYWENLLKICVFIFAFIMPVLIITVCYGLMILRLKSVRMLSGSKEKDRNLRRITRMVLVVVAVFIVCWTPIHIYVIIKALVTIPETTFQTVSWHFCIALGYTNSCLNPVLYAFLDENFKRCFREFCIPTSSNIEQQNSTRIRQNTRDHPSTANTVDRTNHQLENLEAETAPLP
UniProt P32121: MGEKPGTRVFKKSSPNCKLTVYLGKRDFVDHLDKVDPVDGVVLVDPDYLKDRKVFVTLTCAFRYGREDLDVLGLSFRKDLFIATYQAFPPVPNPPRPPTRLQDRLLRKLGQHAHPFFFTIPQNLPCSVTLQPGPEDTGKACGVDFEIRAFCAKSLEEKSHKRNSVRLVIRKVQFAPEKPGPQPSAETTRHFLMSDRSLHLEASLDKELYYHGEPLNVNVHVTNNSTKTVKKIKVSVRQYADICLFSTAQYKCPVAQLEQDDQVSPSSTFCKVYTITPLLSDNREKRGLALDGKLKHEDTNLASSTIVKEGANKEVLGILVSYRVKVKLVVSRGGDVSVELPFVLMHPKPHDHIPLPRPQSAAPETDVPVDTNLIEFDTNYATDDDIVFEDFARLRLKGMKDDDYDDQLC

Target: human μ receptor-Rluc (human) (UniProt P35372)
Assay: FRET or BRET; HEK 293 cells co-transfected with human μ receptor-Rluc and arrestin-3-GFP; BRET at 37°C after 10 min incubation with agonist (DAMGO, morphine or PZM21, 10^-9 - 3 x 10^-5 M)

binding: binds
Substance: arrestin-3-GFP (from UniProt P32121 1-409)
